Library screen at single concentrations

Protein sequences, listed by entry. Tags and fused reporters are not part of them.
UniProt P9WNZ1, whole entry: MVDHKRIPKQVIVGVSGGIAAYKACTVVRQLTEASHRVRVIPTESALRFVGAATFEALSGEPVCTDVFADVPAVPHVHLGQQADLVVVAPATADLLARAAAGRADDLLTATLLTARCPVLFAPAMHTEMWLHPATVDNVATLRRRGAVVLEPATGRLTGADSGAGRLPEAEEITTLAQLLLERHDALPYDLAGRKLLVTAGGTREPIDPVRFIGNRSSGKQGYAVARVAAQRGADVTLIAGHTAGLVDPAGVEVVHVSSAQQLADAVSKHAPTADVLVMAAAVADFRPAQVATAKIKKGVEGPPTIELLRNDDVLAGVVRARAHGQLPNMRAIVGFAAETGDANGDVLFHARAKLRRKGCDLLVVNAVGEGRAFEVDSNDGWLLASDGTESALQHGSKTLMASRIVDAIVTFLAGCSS

The values are deposited in ChEMBL (CHEMBL3988442, “University of Dundee, Small-Polar-MMV Screening Library” (2021)).

Leishmania in macrophages: 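Cell assay of Leishmania donovani living inside macrophages; the read-out is not stated. Tested at 30 µM. The record gives no direction; compounds that gave an IC50 in retests scored well above the rest, so higher reads as stronger inhibition. Size under these conditions: about 69,000 compounds, about 1,000 of them at 50% or above in at least one test.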
CoaBC: 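Coenzyme A biosynthesis protein CoaBC, Mycobacterium tuberculosis (UniProt P9WNZ1). Enzyme assay of CoaBC with a phosphate dye (Biomol Green) read at 650 nm. Compounds at 30 µM. Direction is inferred from only a few compounds that gave an IC50; most scored high, so higher reads as stronger inhibition. Most strong results did not repeat in a second test. Of about 67,000 compounds tested this way, about 40 (0.06%) reached 50% or more in at least one test.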

Values are the deposited “Percent Effect”, in %.
How 0% and 100% were set is not recorded. Most values in the screen are low, and negative values occur.
Compounds were drawn at random from those tested, without regard to their results.
Two or more numbers in one place are separate tests of the same structure; such repeats can differ widely.
A dash means the value is not listed here; it may have been measured.

structure	Leishmania in macrophages	CoaBC
O=S(=O)(c1ccc(Cl)cc1)N1C[C@@H]2CCN[C@@H]2C1	-	5.089%
O=C(NCCCO)C1(CC2CC(c3ccc(F)cc3)=NO2)CCOCC1 (centres undefined)	-2.665%	-2.055%
O=C(NCCC1CN(Cc2cccnc2)CCO1)c1ccsc1 (centres undefined)	9.708%	1.08%
Cc1cc(F)ccc1N1CCCC(NC(=O)CCCn2ccnc2)C1 (centres undefined)	3.263%	-3.639%
N#CC1CCCN(c2ncnc3c2CCN(Cc2ccccc2)CC3)C1 (centres undefined)	17.12%	5.785%
CN1CCC(N(CCc2ccccc2)Cc2noc(C3CC3)n2)CC1	-4.45%	6.832%
COCCN(Cc1ccccn1)Cc1sccc1C	0.646%	4.847%
c1coc(CN2Cc3ccnn3CC(COCC3CC3)C2)c1 (centres undefined)	-	5.607%
O=C(O)c1ccnc(-c2ccnc(NCCc3nc4c(s3)CCC4)n2)c1	30.5%	14.61%
[H][C@]12CC[C@]([H])(CN(c3nccnc3OC)C1)N(CC=C(C)C)C2=O	9.218% and -0.7211%	-
CC(C)=CCN1CCN(Cc2cccc(C)n2)CC1CCO (centres undefined)	-3.031%	1.844%
CC1(C)CN(C(CNC2=NCCN2)c2ccc(Cl)cc2)CCO1 (centres undefined)	-	-16.52%
COCC1c2nnn(C)c2CCN1C(=O)Cc1ccc2c(c1)OCO2 (centres undefined)	11.09%	-1.844%
Cn1nc(C(=O)N2CCSCC2)cc1NC(=O)c1ccccc1	23.27%	0.2427%
CC(NC(=O)Cn1cccnc1=O)c1ccc(C(F)(F)F)cc1 (centres undefined)	-1.944%	10.33%
Cc1nc(C)n(CC(C)C(=O)N2CCC(CN3CCOCC3)CC2)n1 (centres undefined)	6.358%	0.2558%
Cc1nc(CN(C)C2CCN(Cc3cnc(C)s3)C2)no1 (centres undefined)	20.83%	5.257%
O=C1C[C@H]2[C@@H](CCN2Cc2ccccn2)N1CCN1CCOCC1	-	1.158%
CC(C)Nc1ncnc2c1CCN(C(=O)c1ccncc1F)CC2.O=C(O)C(F)(F)F	-47.93%	-
O=C(NCc1ccc(CO)cc1)C1CCOc2ccccc2C1 (centres undefined)	-3.075%	1.277%
O=C(N1CCCC1)N1CCC[C@]2(C[C@@H](OCc3ccncc3)CO2)C1.O=C(O)C(F)(F)F	4.094%	-
Cc1cnc2c(c1)N(C(=O)c1ccc(=O)n(C)c1)CCO2	21.34%	-0.4132%
Cc1nn(CC(C)C)c(N(C)C)c1CNCCC(=O)NC(C)C	-13.18%	-0.9926%
Cc1ccc(-c2nc(CNCC3CN(C)CCO3)cs2)o1 (centres undefined)	20.41%	-1.054%
Cc1nccc(NCc2cncc3c2CCN(CC2CCOC2)C3)n1 (centres undefined)	-	4.938%
Cc1ccc(N2CCCc3sc(C(=O)NCCC#N)nc32)nn1	-	8.841%
COCc1cccc(NC(C)C(=O)N(C)Cc2cccc(F)c2)c1 (centres undefined)	15.94%	4.846%
CCCS(=O)(=O)N1CC[C@H]2O[C@H](c3nnc(C)o3)CC[C@H]21	-	-1.777%
O=C1CN(c2ccc(CNC(=O)Nc3nccs3)cc2)CCN1	14.99%	3.505%
CCc1[nH]c2c(CNc3cnccn3)cc(F)cc2c1C	-2.387%	6.277%
COc1ccc2c(c1)OCC(CNC(=O)c1cc[nH]c1C)C2 (centres undefined)	-28.07%	1.533%
Cc1n[nH]c(C2CN(C(=O)c3ccc4c(c3)CCCC4)CCO2)n1 (centres undefined)	-8.166%	2.927%
Cc1csc(N2CCN(CC(=O)Nc3cccnc3)CC2C)n1 (centres undefined)	31.55%	4.386%
Cc1ccc(CN2CCn3c(CN4CCN(C)CC4)cnc3C2C)s1 (centres undefined)	-	-6.173%
NC(=O)CN1CC2(CCC1=O)CCN(C(=O)c1ccccc1F)CC2	14.69%	-0.7653%
O=C(c1cnccn1)N1CCCC2(CCCN2Cc2cccnc2)C1 (centres undefined)	14.7%	3.055%
Cc1ccnn1CCC(=O)N1C[C@H]2CC[C@@H]1CN(CC(=O)N(C)C)C2	-	2.146%
CC(C)Cc1noc(CN2CCN(C(=O)c3cccc(F)c3)CC2)n1	25.57%	1.505%
CCS(=O)(=O)N1CCN(C(C)c2ncc(-c3ccccc3)o2)CC1 (centres undefined)	10.39%	6.148%
Cc1noc(C)c1CN1CCn2nc(CCC(=O)N3CCCC3)cc2C1	-17.53%	4.569%
Cc1occc1C(=O)N1C[C@@H]2CN(S(C)(=O)=O)CCO[C@@H]2C1	-	-1.48%
CS(=O)(=O)N1CCC2(CC1)c1ccccc1[C@@H](N1CCSCC1)[C@@H]2O	16.28%	-1.006%
Cc1c(C(=O)N[C@@H]2CC[C@@H](N3CCCC3)[C@@H]2O)[nH]c2ccc(F)cc12	33.53%	-7.126%
CCOC(=O)NCCNC(=O)c1cc2ccccc2nc1N1CCCC1	12.12%	-3.891%
Cl.Clc1ccccc1CN1CCc2nc(C3CCNCC3)ncc2C1	3.749%	-
CC1=N[C@@]2(CC[C@@H]3CN(CC(=O)N(C)C)C[C@@H]32)C(=O)N1CC(C)C	-	5.249%
CC(C)n1cnc2c1C(C(=O)NCCO)N(Cc1ccccc1)CC2 (centres undefined)	-	9.772%
COCc1noc(-c2ccc(N3CCCC3c3ccc(F)cc3)nc2)n1 (centres undefined)	7.252%	5.556%
CCc1nc2n(n1)CC(NCc1nnc(C(C)C)o1)CC2 (centres undefined)	-7.959%	-9.895%
[H][C@]12CC[C@]([H])(CN(S(=O)(=O)c3ccc(OC)cc3)C1)N(CCOC)C2=O	-0.9733%	-
CCc1nc(CN(C)C(=O)c2cc(NC(C)=O)ccc2Cl)no1	17.85%	0.4808%
Fc1ccc(CN2CCC3(CC2)CCN(c2ncccn2)CC3)cc1.O=C(O)C(F)(F)F.O=C(O)C(F)(F)F	15.8%	-
O=C(CNC(=O)c1ccoc1)NC(c1ccc(F)cc1)C(F)(F)F (centres undefined)	-9.431%	0%
CS(=O)(=O)NCc1nnc2n1CCN(CC1CC1)C2	15.64%	10.54%
O=C(O)C(F)(F)F.O=C(O)C(F)(F)F.[H][C@]12CCN(C(=O)c3cccs3)CC[C@]1([H])N(CCN(C)C)CCO2	8.724%	-
Cc1nc2c(c(NCC(O)C(F)(F)F)n1)CCNCC2 (centres undefined)	-15.94%	-3.204%
O=C(c1ccncc1)N1C[C@@H]2CC[C@H](C1)N(C(=O)C1CCCC1)C2	-	1.499%
Cc1noc(C)c1CNCC1COCc2c(-c3ccoc3)nnn2C1.O=C(O)C(F)(F)F (centres undefined)	2.515%	-
Cc1nnc2n1CCN(CCS(=O)(=O)c1ccccc1)C2	26.07%	0%
[H][C@@]12CS(=O)(=O)C[C@]1([H])N(S(=O)(=O)c1cccc(OC)c1)CCN2C	17.19%	-
COc1cccc(-c2noc(C3CCN(Cc4ccccc4C)C3)n2)c1.Cl (centres undefined)	-5.444% and -5.915%	-
O=C(c1ccoc1)N1CCCC2(CCC(=O)N2Cc2cccnc2)C1 (centres undefined)	-	7.4%
CCN(C)CC(=O)N1CCCC(c2nnc(CN3CCOCC3)n2C)C1 (centres undefined)	14.81%	7.54%
COCCCN1CCN([C@@H]2c3ccccc3C3(CCNCC3)[C@H]2O)CC1	27.84%	-5.622%
CCN(Cc1nc2c(cnn2C)c(=O)[nH]1)c1ccc(F)cc1	6.246%	3.944%
Fc1ccc(CNCCn2cccn2)cc1F	22.29%	-3.481%
CC(CCN1CCCn2nc(CNS(C)(=O)=O)cc2C1)c1ccccc1 (centres undefined)	21.37%	0.3968%
Cc1ccc(S(=O)(=O)N2C[C@H]3C[C@H](NC(=O)c4cscn4)[C@H]3C2)cc1	-	4.585%
Cc1nnc2n1CCN(C(C(=O)NC1CC1)c1ccc(F)cc1)C2 (centres undefined)	20.43%	1.053%
O=S(=O)(NCC1COc2ccccc2C1)N1CCCCC1 (centres undefined)	29.51%	6.091%
CC(C)n1ccnc1CN1CCCN(C(=O)CN(C)C2CC2)CC1	42.27%	9.542%
CC(C)NC(=O)C(C)S(=O)(=O)c1cc2c(cc1Cl)OCCO2 (centres undefined)	-8.289%	-0.5894%
COC(=O)[C@H](CSC)Nc1nc(C2CCCC2)nc2c1cnn2C	-3.386%	-2.481%
CCN(C(=O)CNC1CCc2ncnn2C1)C1=CCCCC1 (centres undefined)	-10.26%	-2.444%
COCc1c(C(=O)N2CCCC(C(=O)c3ccccc3)C2)noc1C (centres undefined)	17.23%	-2.101%
COCCN(CCOC)Cc1nc2c(cnn2C)c(=O)[nH]1	-0.6733%	-3.354%

Once more, the final 7:

For O=S(=O)(NCC1COc2ccccc2C1)N1CCCCC1 (centres undefined) the result was Leishmania in macrophages: 29.51%; CoaBC: 6.091%.
For CC(C)n1ccnc1CN1CCCN(C(=O)CN(C)C2CC2)CC1 the result was Leishmania in macrophages: 42.27%; CoaBC: 9.542%.
For CC(C)NC(=O)C(C)S(=O)(=O)c1cc2c(cc1Cl)OCCO2 (centres undefined) the result was Leishmania in macrophages: -8.289%; CoaBC: -0.5894%.
For COC(=O)[C@H](CSC)Nc1nc(C2CCCC2)nc2c1cnn2C the result was Leishmania in macrophages: -3.386%; CoaBC: -2.481%.
For CCN(C(=O)CNC1CCc2ncnn2C1)C1=CCCCC1 (centres undefined) the result was Leishmania in macrophages: -10.26%; CoaBC: -2.444%.
For COCc1c(C(=O)N2CCCC(C(=O)c3ccccc3)C2)noc1C (centres undefined) the result was Leishmania in macrophages: 17.23%; CoaBC: -2.101%.
For COCCN(CCOC)Cc1nc2c(cnn2C)c(=O)[nH]1 the result was Leishmania in macrophages: -0.6733%; CoaBC: -3.354%.